The nature of the experiment: qHTS Assay for Lipid Storage Modulators in Drosophila S3 Cells.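 For cell number change: cells counted by Cell Tracker Red CMTPX staining in the red channel.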 Particulars: BODIPY lipid droplet fluorescence, 18-24 h; for cell number change: measured here: cell count max response, cells fed with added oleic acid. The procedure, abridged:
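Laser-scanning cytometry quantifies lipid droplet accumulation (500–530 nm total intensity; droplet/cell object ratio) in oleic acid-fed (400 uM added) Drosophila S3 cells treated with a concentration series. 20 uM Triacsin C defined 100% inhibition.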

The mark [1] stands for this setting: measured here: cell number channel AC50, cells fed with added oleic acid.
[2] abbreviates: measured here: lipid fluorescence (Fed channel) AC50, cells fed with added oleic acid.

The structures appear in SMILES notation. Some of the results follow. The main result of the screen is listed elsewhere. These columns were measured beside it and carry no call. Most of these compounds were active or inconclusive in the main read-out, so they are no random draw. Words in brackets tell the shape of the fitted curve; partial curves, single points and poor fits give uncertain potencies.

With `Cc1ccc(S(=O)(=O)Nc2cccc(Cl)c2)cc1NC(=O)c1cccnc1`, the AC50 under setting [1] is 2.59 µM [rising, single point].
Take `Cc1cccc(C)c1-n1c(C)cc(/C=N/NC(N)=S)c1C`: the cell number change amounted to 15%. In addition, under setting [1], the AC50 is 0.00517 µM [rising, full curve, poor fit]. For the same molecule, the half-maximal activity concentration (AC50) under setting [2] is 0.231 µM [rising, full curve, poor fit].
On to `N#Cc1c(Cn2cncn2)nc(=O)n(-c2ccc(Cl)cc2)c1N`, for which the cell number change was -19.6%. Also, under setting [2], the AC50 was 1.03 µM [falling, full curve, poor fit].
As for `Cc1cccc(-n2c(N)c(-c3nc4ccccc4n3C)c3nc4ccccc4nc32)c1`, the concentration at half-maximal activity (AC50) under setting [2] was 2.91 µM [falling, partial curve, poor fit].
As to `COc1ccc(-n2c(C)ccc2-c2ccccc2)cn1`, the half-maximal activity concentration (AC50) under setting [2] was 16.4 µM [falling, single point].
Take `CCN(CC)CCn1c2c(c(SCC(=O)Nc3cc(OC)cc(OC)c3)nc1=O)CCC2`: the cell number change is -9.4%.
With `CCCS(=O)(=O)n1nc(-c2ccc(C)cc2)cc1N`, the cell number change was 24.3%. For the same molecule, under setting [2], the concentration at half-maximal activity (AC50) is 8.2 µM [rising, partial curve, poor fit].
In the case of `Cc1cc(Cl)ccc1OCCCC(=O)N1CCCc2ccccc21`, the AC50 is, setting by setting: under setting [1], 0.116 µM [rising, full curve, poor fit]; under setting [2], 6.51 µM [rising, partial curve, poor fit].
Regarding `Cc1nnc(SC(C)C(=O)Nc2c(C)n(C)n(-c3ccccc3)c2=O)n1N` (centres undefined), the cell number change turned out to be 9.1%.
Take `Cc1ccc(NCC(=O)NNC2=NCCC2)c(C)c1`: the cell number change is -0.166%. Moreover, under setting [2], the concentration at half-maximal activity (AC50) was 6.51 µM [falling, single point].
In the case of `COC(=O)c1cc(Br)c(N)cc1OC`, the cell number change is -30.7%.
As for `CC1CCC2(CC1)NC(=O)N(CC(=O)Nc1ccc3c(c1)OCCCO3)C2=O` (centres undefined), the cell number change was -6.74%.
As for `Cc1ccc(COc2ccccc2C(=S)N2CCCC2)cc1`, the cell number change stood at 17.1%. Besides, the AC50 under setting [2] was 29.1 µM [falling, single point].
On to `COc1cccc(-n2nnnc2SCC(=O)NC2CCCC2)c1`, for which the cell number change amounted to 10.5%.
As to `COc1ccc(OCC(=O)N/N=C2/C=C(C)CC2)cc1`, the AC50 under setting [1] is 4.11 µM [falling, single point].
For the molecule `N#CC1=C(N)Oc2[nH]c(=S)[nH]c(=O)c2C12C(=O)Nc1ccccc12` (centres undefined), the AC50 under setting [2] was 29.1 µM [falling, single point].
`COc1ccccc1N(C)S(=O)(=O)c1ccc(C(=O)Nc2nc(C)c(C(C)=O)s2)cc1`: the cell number change was -18.5%. For the same molecule, the concentration at half-maximal activity (AC50) under setting [2] is 4.11 µM [falling, single point].
In the case of `CC1=Nc2cc(C(=O)NCCCN3CCN(C)CC3)ccc2Sc2ccc(C)cc21`, the cell number change is -14.3%.
Take `CN1C(=O)N(c2ccccc2)C(Nc2nncs2)C1(C)C` (centres undefined): the cell number change came out at 4.39%. Moreover, under setting [2], the AC50 is 16.4 µM [rising, single point].
For `O=C(Nc1ccccc1)N1CCSc2ccccc21`, the cell number change is -45%. The AC50 under setting [1] was 1.03 µM [falling, full curve, poor fit]. For the same molecule, under setting [2], the concentration at half-maximal activity (AC50) was 0.00461 µM [falling, full curve, poor fit].
Turning to `COCCN(Cc1cc2cccc(C)c2[nH]c1=O)C(=O)c1ccccc1`, the half-maximal activity concentration (AC50) runs as follows: under setting [1], 2.06 µM [rising, partial curve]; under setting [2], 2.59 µM [rising, partial curve].
For `CCOc1ccc(S(=O)(=O)Nc2cccc(N(C)S(C)(=O)=O)c2)cc1`, the cell number change is -23.3%. Under setting [2], the half-maximal activity concentration (AC50) is 29.1 µM [falling, single point].
With `CC(C)C(=O)OCC(=O)NCc1ccccc1Cl`, the cell number change is -30.5%. For the same molecule, under setting [1], the AC50 was 3.66 µM [falling, full curve]. Moreover, under setting [2], the concentration at half-maximal activity (AC50) is 25.9 µM [falling, single point].
Regarding `CCCc1cc(Nc2ccccc2)n2ncnc2n1`, the cell number change stood at 0.275%. For the same molecule, the AC50 under setting [2] was 23.1 µM [rising, single point].
On to `Cc1cc([N+](=O)[O-])c(C)cc1-c1ccc(/C=N/n2cnnc2)o1`, for which the cell number change is -9.52%. In addition, the concentration at half-maximal activity (AC50) under setting [2] is 6.51 µM [falling, single point].
As for `COc1ccc(OC)c(CCNC(=O)CCCc2nnc3n(C)c(=O)c4sccc4n23)c1`, the concentration at half-maximal activity (AC50) under setting [2] is 1.84 µM [falling, full curve].
On to `Cc1cccc(-c2cc3c(nn2)-c2ccccc2C3=O)c1`, for which the cell number change came out at 14.2%. For the same molecule, under setting [1], the AC50 is 0.461 µM [rising, full curve, poor fit].
For `O=c1c(Cl)c(N/N=C/c2ccc(Cl)cc2)cnn1-c1ccccc1`, the cell number change was -37.7%. Under setting [1], the AC50 is 29.1 µM [falling, single point]. The AC50 under setting [2] is 29.1 µM [falling, single point].
With `O=C(NCc1cccc2ccsc12)c1cccs1`, the cell number change came to 14.5%. Besides, under setting [2], the AC50 is 4.11 µM [rising, full curve].
Take `CC(NC(=O)COc1ccccc1Cl)c1ccccc1` (centres undefined): the cell number change came to 0.826%. For the same molecule, the concentration at half-maximal activity (AC50) under setting [2] was 14.6 µM [falling, partial curve, poor fit].
On to `CN(C(=O)COc1ccccc1C(=O)NCCOc1ccccc1)c1ccccc1`, for which the cell number change is -64%. In addition, the AC50 under setting [1] was 18.4 µM [falling, partial curve]. Moreover, under setting [2], the AC50 was 29.1 µM [falling, partial curve, poor fit].
Take `COc1cc(/C=C/C(=O)Nc2cccnc2)cc(OC)c1OC`: the cell number change is -17.6%. In addition, the concentration at half-maximal activity (AC50) under setting [2] was 20.6 µM [falling, partial curve, poor fit].
Turning to `COc1ccccc1CNC(c1ccccc1)c1ccccc1`, the cell number change was -15.7%.
Consider `CCSc1nnc(NC(=O)c2nc(-c3ccccc3)n(-c3ccccc3)n2)s1`, for which the cell number change turned out to be 0.194%. Moreover, under setting [2], the concentration at half-maximal activity (AC50) was 20.6 µM [falling, partial curve].
As for `c1csc(-c2nc(N3CCCCC3)no2)c1`, the cell number change is -11.1%. Under setting [2], the AC50 is 0.82 µM [falling, full curve].
Consider `CC(C)n1c(SCC(=O)Nc2ccc(N3CCOCC3)cc2)nnc1-c1ccco1`, for which the cell number change is -16.4%. Moreover, the AC50 under setting [2] is 0.206 µM [rising, single point].
Consider `C/C(=N\Nc1cc(N2CCCCC2)nc(C)n1)c1ccc(Br)cc1`, for which the cell number change is -47%. The AC50 under setting [1] is 16.4 µM [falling, single point].
In the case of `COc1ccc2[nH]cc(CCNC(=O)Nc3ccccc3C)c2c1`, the cell number change was -8.76%.
Take `Cc1ccc(C(=O)OCc2nnc(-c3ccccc3)o2)s1`: the cell number change came out at 75%. The half-maximal activity concentration (AC50) under setting [1] was 29.1 µM [rising, single point].
With `CCOC(=O)c1[nH]cnc1C(=O)Nc1cccc(Cl)c1`, the cell number change is -43%. Besides, under setting [1], the AC50 is 29.1 µM [falling, single point].
As for `CCOC(=O)Cc1csc(NC(=S)NC(=O)c2ccccc2)n1`, the cell number change is 12.3%. Under setting [2], the AC50 was 0.731 µM [rising, full curve].
Take `Cc1cccc(N2C(S)=C(C#N)C(=O)NC23CCCCC3)c1`: the cell number change was -28.9%. Further, the half-maximal activity concentration (AC50) under setting [1] was 1.64 µM [rising, partial curve]. Moreover, under setting [2], the AC50 is 2.06 µM [rising, partial curve].
Take `COc1ccc(NC(=O)CCC(=O)c2ccc(-c3ccccc3)cc2)cc1`: the cell number change is 56%. Moreover, the AC50 under setting [1] was 0.00517 µM [falling, full curve, poor fit].
Take `Cc1cc(C)cc(OCCn2nnc3ccccc32)c1`: the cell number change is -9.39%. Besides, under setting [2], the half-maximal activity concentration (AC50) was 29.1 µM [falling, single point].
As for `Cc1c(C(=O)N(C)C)sc(NC(=O)c2cccc([N+](=O)[O-])c2)c1C#N`, the cell number change was -43.2%. Also, the AC50 under setting [1] was 20.6 µM [falling, partial curve]. The half-maximal activity concentration (AC50) under setting [2] is 16.4 µM [falling, partial curve].
For `O=c1[nH]c(=S)[nH]c2[nH]c(=S)[nH]c12`, the cell number change was -12.7%.
On to `CCOc1ccccc1N1CC(C(=O)NCCOc2ccccc2OC)CC1=O` (centres undefined), for which the cell number change was -8.78%. The concentration at half-maximal activity (AC50) under setting [2] was 11.6 µM [rising, partial curve, poor fit].
Regarding `Cc1ccc(Cl)cc1N1CCN(C(=O)Cc2csc(Nc3nc(=S)[nH]c4ccccc34)n2)CC1`, under setting [1], the half-maximal activity concentration (AC50) was 0.00411 µM [rising, partial curve, poor fit].
Consider `Cn1c(N)c(C(=O)COC(=O)C(Cc2ccccc2)NC(=O)c2ccccc2)c(=O)n(C)c1=O` (centres undefined), for which the cell number change is -5.54%.
On to `O=C(CN1CCN(C2CCCCC2)CC1)c1ccc2cc[nH]c2c1`, for which the cell number change worked out at 65.9%. Also, the concentration at half-maximal activity (AC50) under setting [1] is 14.6 µM [rising, partial curve]. In addition, the AC50 under setting [2] is 20.6 µM [rising, single point].
Regarding `Cc1csc(NC(=O)c2cnc3ccccc3n2)n1`, the AC50 under setting [2] is 0.116 µM [falling, partial curve, poor fit].
Take `Cn1c(=O)n(CCN2CCOCC2)c(=O)c2c1nc1n2CCN1c1ccc(Oc2ccccc2)cc1`: the cell number change was -15.8%. Besides, under setting [1], the AC50 is 0.00517 µM [falling, full curve, poor fit]. For the same molecule, the concentration at half-maximal activity (AC50) under setting [2] was 0.00731 µM [falling, full curve, poor fit].
In the case of `COc1ccc(C)cc1NC(=O)CN(c1ccc(C)cc1)S(C)(=O)=O`, the cell number change turned out to be 7.32%.
For `Nc1nn2c(-c3ccccc3)cc(=O)[nH]c2c1N=Nc1ccc(O)cc1`, the cell number change was -37.1%. Also, the concentration at half-maximal activity (AC50) under setting [1] is 25.9 µM [falling, single point]. Also, the AC50 under setting [2] is 23.1 µM [falling, single point].
Take `COc1cccc(-c2sc3ccc(OC)cc3c2C#CC2(O)CCCCC2)c1`: the cell number change was -33.8%. For the same molecule, the AC50 under setting [1] was 7.31 µM [falling, single point]. Moreover, the concentration at half-maximal activity (AC50) under setting [2] is 0.116 µM [falling, single point].
For the molecule `CN(CC(=O)Nc1cccc(F)c1)C(=O)c1cn(-c2ccccc2)nc1-c1ccc(Cl)cc1`, under setting [2], the AC50 was 25.9 µM [falling, partial curve].
As for `CCOC(=O)c1cc(-c2ccccc2)sc1N`, the cell number change is -37%. Moreover, the concentration at half-maximal activity (AC50) under setting [1] was 23.1 µM [falling, single point]. Besides, under setting [2], the AC50 was 18.4 µM [falling, single point].
Regarding `O=[N+]([O-])c1cccc(CP(=O)(c2ccccc2)c2ccccc2)c1`, the cell number change came out at 3.76%. Also, under setting [2], the AC50 was 32.6 µM [falling, single point].
As for `COc1ccc(CCNC(=O)c2ccc(CS(=O)(=O)c3ccc(C)cc3)o2)cc1OC`, the cell number change was -22.2%. Further, the half-maximal activity concentration (AC50) under setting [2] was 1.16 µM [rising, full curve].
As to `O=C(O)c1ccc(CNS(=O)(=O)c2ccc(Oc3ccccc3Cl)cc2)cc1`, the cell number change is -2.36%. Also, the AC50 under setting [2] is 11.6 µM [rising, partial curve].
Take `COc1cc(OC)cc(-c2cc3nc(C)c(CCC(=O)O)c(C)n3n2)c1`: the cell number change is -14.8%. Also, under setting [2], the concentration at half-maximal activity (AC50) is 32.6 µM [rising, single point].

What is called AC50 is the concentration giving half of the maximal activity seen. A high value points to weaker potency.
